From article PMC3876986, “The Velvet Family of Fungal Regulators Contains a DNA-Binding Domain Structurally Similar to NF-κB” come the findings set out here.

Common to all, as to test: EMSA
(Mobility shift assays separate free from complexed probe on a gel.)

Data set [1] concerns the target T1, VeA1-224 (Aspergillus nidulans) (UniProt C8VTV4).
T1 sequence (looked up): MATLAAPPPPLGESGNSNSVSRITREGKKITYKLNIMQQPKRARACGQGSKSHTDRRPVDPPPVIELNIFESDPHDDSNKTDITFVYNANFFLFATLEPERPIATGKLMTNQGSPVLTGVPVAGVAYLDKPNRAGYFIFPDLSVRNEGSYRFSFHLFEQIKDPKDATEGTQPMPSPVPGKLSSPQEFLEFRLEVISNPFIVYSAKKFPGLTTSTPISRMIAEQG
The note with it: EMSA: 10 mM HEPES/NaOH pH 7.4, 150 mM NaCl, ~53 pmol DNA in 10 ul, RT 15 min; DNA:protein molar ratios 1:0.3 to 1:9; 6% PAGE, 0.5% TBE, ethidium bromide; recombinant protein; residues 1-224; protein details: Strep-tag (C-terminal).

In data set [2] the target is VosA1-190 (VosA_cryst) (Aspergillus nidulans) (UniProt Q5BBX1). The note with it: EMSA: 10 mM HEPES/NaOH pH 7.4, 150 mM NaCl, ~53 pmol DNA in 10 ul, RT 15 min; DNA:protein molar ratios 1:0.3 to 1:9; 6% PAGE, 0.5% TBE, ethidium bromide; recombinant protein; residues 1-190; protein details: Strep-tag (C-terminal).
Data set [3] has as its target T2, GST-VeA (Aspergillus nidulans) (UniProt C8VTV4).
T2 sequence (looked up): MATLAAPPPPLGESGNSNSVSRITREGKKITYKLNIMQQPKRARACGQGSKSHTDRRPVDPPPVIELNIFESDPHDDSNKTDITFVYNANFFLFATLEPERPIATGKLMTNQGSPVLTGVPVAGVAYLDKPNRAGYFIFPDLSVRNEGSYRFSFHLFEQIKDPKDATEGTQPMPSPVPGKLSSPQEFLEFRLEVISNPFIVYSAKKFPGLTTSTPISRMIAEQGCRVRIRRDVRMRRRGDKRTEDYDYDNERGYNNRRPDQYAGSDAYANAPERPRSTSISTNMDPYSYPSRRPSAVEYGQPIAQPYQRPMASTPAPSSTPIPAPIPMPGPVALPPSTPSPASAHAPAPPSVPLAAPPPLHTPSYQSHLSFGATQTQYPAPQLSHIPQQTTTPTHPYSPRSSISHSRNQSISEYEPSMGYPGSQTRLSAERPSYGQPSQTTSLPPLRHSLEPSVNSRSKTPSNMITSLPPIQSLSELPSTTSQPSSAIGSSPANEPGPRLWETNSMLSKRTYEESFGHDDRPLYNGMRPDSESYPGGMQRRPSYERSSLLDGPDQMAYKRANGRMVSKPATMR
To be noted: EMSA: 10 mM HEPES/NaOH pH 7.4, 150 mM NaCl, ~53 pmol DNA in 10 ul, RT 15 min; DNA:protein molar ratios 1:0.3 to 1:9; 6% PAGE, 0.5% TBE, ethidium bromide; recombinant protein; residues 1-573; protein details: GST (N-terminal, pGEX-5X-1).

The exact form of at least one protein or probe is not confirmed. For some of these results: The comparison behind a weaker result is the experiment's own reference, which may not be listed here. At least one verdict was read from the data and is not stated in words by the source. For some of these results: Where a protein sequence is shown, tags need not be part of it.

On to “ATTCGGCGACTAGGATCTTACCCGCGGCCGAG (double strand) [brlA-delta2 (JG636/637)]”, for which the binding result in data set [1] and in data set [2] was “binds more weakly” throughout.
Turning to “ATTCGGCGACTAGGATCTTACTGGCCGAG (double strand) [brlA-delta1 (JG638/639)]”, the binding result in data set [1] and in data set [2] was “binds more weakly” each time.
Regarding “ATTCGGCGACTAGGATCTTACCCGAG (double strand) [brlA-delta2-delta1 (JG640/641)]”, the binding result in data set [1] and in data set [2] was “binds more weakly” throughout.
As for “ATTCGGCGACTAGGATCTTACTGGCCGCGGCCGAG (double strand) [brlA 35 bp probe (OHS301/302)]”, in data set [3], the binding result is on record as “binds”.
